Assay results taken from patent publication US20110229459A1.
Results are given in words; binding and its absence hold for the method and conditions named. Some entries that bind do so weakly or less than the wild type.

Biological target: T1, rhNR10 (human) (UniProt Q8NI17)
T1 sequence: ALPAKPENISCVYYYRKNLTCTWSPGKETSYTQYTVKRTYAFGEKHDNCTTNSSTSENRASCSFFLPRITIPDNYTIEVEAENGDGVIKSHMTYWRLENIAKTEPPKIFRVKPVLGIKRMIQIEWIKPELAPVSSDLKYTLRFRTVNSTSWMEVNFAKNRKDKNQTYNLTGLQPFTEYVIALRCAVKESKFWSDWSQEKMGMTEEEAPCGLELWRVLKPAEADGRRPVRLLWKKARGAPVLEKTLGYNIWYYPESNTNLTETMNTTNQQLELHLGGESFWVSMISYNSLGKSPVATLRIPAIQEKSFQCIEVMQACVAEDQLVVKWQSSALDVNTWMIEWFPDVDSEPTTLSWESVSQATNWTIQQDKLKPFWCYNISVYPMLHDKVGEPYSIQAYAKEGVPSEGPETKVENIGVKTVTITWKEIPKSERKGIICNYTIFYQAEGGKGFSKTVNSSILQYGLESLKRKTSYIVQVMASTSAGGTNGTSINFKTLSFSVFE
Assay: SPR (Biacore T100): antibody captured on Protein A, rhNR10 as analyte

Binder | binding
H0L17 (H chain, H0-M58; L chain, L17) (antibody, V domains shown) VH: QVQLVQSGAEVKKPGASVKVSCKASGYTFTGYIMNWVRQAPGQGLEWMGLINPYNGGTSYNQKFKGRVTITADESTSTAYMELSSLRSEDTAVYYCARDGYDDGPYTMDYWGQGTLVTVSS VL: DIQMTQSPSSLSASVGDRVTITCQASEDIYSFVAWYQQKPGKAPKLLIYNAQTEAQGVPSRFSGSGSGTDFTLTISSLQPEDFATYYCQHHYDSPLTFGGGTKVEIKR | binds
H28L17 (H chain, H28-M58; L chain, L17) (antibody, V domains shown) VH: QVQLVQSGAEVKKPGASVKVSCKASGYTFTGYVLNWVRQAPGQGLEWMGLINPYNGGTDYNPQFQDRVTITADESTSTAYMELSSLRSEDTAVYYCARDGYDDGPYTLETWGQGTLVTVSS VL: DIQMTQSPSSLSASVGDRVTITCQASEDIYSFVAWYQQKPGKAPKLLIYNAQTEAQGVPSRFSGSGSGTDFTLTISSLQPEDFATYYCQHHYDSPLTFGGGTKVEIKR | binds
H30L17 (H chain, H30-M58; L chain, L17) (antibody, V domains shown) VH: QVQLVQSGAEVKKPGASVKVSCKASGYTFTGYIMNWVRQAPGQGLEWMGLINPYNGGTDYNPQFQDRVTITADESTSTAYMELSSLRSEDTAVYYCARDGYDDGPYTLETWGQGTLVTVSS VL: DIQMTQSPSSLSASVGDRVTITCQASEDIYSFVAWYQQKPGKAPKLLIYNAQTEAQGVPSRFSGSGSGTDFTLTISSLQPEDFATYYCQHHYDSPLTFGGGTKVEIKR | binds
H34L17 (H chain, H34-M58; L chain, L17) (antibody, V domains shown) VH: QVQLVQSGAEVKKPGASVKVSCKASGYTFTGYAMNWVRQAPGQGLEWMGLINPYNGGTDYNPQFQDRVTITADESTSTAYMELSSLRSEDTAVYYCARDGYDDGPYTLETWGQGTLVTVSS VL: DIQMTQSPSSLSASVGDRVTITCQASEDIYSFVAWYQQKPGKAPKLLIYNAQTEAQGVPSRFSGSGSGTDFTLTISSLQPEDFATYYCQHHYDSPLTFGGGTKVEIKR | binds
H42L17 (H chain, H42-M58; L chain, L17) (antibody, V domains shown) VH: QVQLVQSGAEVKKPGASVKVSCKASGYTFTGYVLNWVRQAPGQGLEWMGLINPYNGGTDYNPQFQDRVTITADKSTSTAYMELSSLRSEDTAVYYCARDGYDDGPYTLETWGQGTLVTVSS VL: DIQMTQSPSSLSASVGDRVTITCQASEDIYSFVAWYQQKPGKAPKLLIYNAQTEAQGVPSRFSGSGSGTDFTLTISSLQPEDFATYYCQHHYDSPLTFGGGTKVEIKR | binds
H44L17 (H chain, H44-M58; L chain, L17) (antibody, V domains shown) VH: QVQLVQSGAEVKKPGASVKVSCKASGYTFTGYIMNWVRQAPGQGLEWMGLINPYNGGTDYNPQFQDRVTITADKSTSTAYMELSSLRSEDTAVYYCARDGYDDGPYTLETWGQGTLVTVSS VL: DIQMTQSPSSLSASVGDRVTITCQASEDIYSFVAWYQQKPGKAPKLLIYNAQTEAQGVPSRFSGSGSGTDFTLTISSLQPEDFATYYCQHHYDSPLTFGGGTKVEIKR | binds
H46L17 (H chain, H46-M58; L chain, L17) (antibody, V domains shown) VH: QVQLVQSGAEVKKPGASVKVSCKASGYTFTGYAMNWVRQAPGQGLEWMGLINPYNGGTDYNPQFQDRVTITADKSTSTAYMELSSLRSEDTAVYYCARDGYDDGPYTLETWGQGTLVTVSS VL: DIQMTQSPSSLSASVGDRVTITCQASEDIYSFVAWYQQKPGKAPKLLIYNAQTEAQGVPSRFSGSGSGTDFTLTISSLQPEDFATYYCQHHYDSPLTFGGGTKVEIKR | binds
H57L17 (H chain, H57-M58; L chain, L17) (antibody, V domains shown) VH: QVQLVQSGAEVKKPGASVKVSCKASGYTFTGYIMNWVRQAPGQGLEWMGLINPYNGGTDYNPQFQGRVTITADESTSTAYMELSSLRSEDTAVYYCARDGYDDGPYTLETWGQGTLVTVSS VL: DIQMTQSPSSLSASVGDRVTITCQASEDIYSFVAWYQQKPGKAPKLLIYNAQTEAQGVPSRFSGSGSGTDFTLTISSLQPEDFATYYCQHHYDSPLTFGGGTKVEIKR | binds
H71L17 (H chain, H71-M58; L chain, L17) (antibody, V domains shown) VH: QVQLVQSGAEVKKPGASVKVSCKASGYTFTGYAMNWVRQAPGQGLEWMGLINPYNGGTDYNPQFQGRVTITADESTSTAYMELSSLRSEDTAVYYCARDGYDDGPYTLETWGQGTLVTVSS VL: DIQMTQSPSSLSASVGDRVTITCQASEDIYSFVAWYQQKPGKAPKLLIYNAQTEAQGVPSRFSGSGSGTDFTLTISSLQPEDFATYYCQHHYDSPLTFGGGTKVEIKR | binds
H78L17 (H chain, H78-M58; L chain, L17) (antibody, V domains shown) VH: QVQLVQSGAEVKKPGASVKVSCKASGYTFTGYIMNWVRQAPGQGLEWMGLINPYNGGTDYNPQFQGRVTITADKSTSTAYMELSSLRSEDTAVYYCARDGYDDGPYTLETWGQGTLVTVSS VL: DIQMTQSPSSLSASVGDRVTITCQASEDIYSFVAWYQQKPGKAPKLLIYNAQTEAQGVPSRFSGSGSGTDFTLTISSLQPEDFATYYCQHHYDSPLTFGGGTKVEIKR | binds
H92L17 (H chain, H92-M58; L chain, L17) (antibody, V domains shown) VH: QVQLVQSGAEVKKPGASVKVSCKASGYTFTGYAMNWVRQAPGQGLEWMGLINPYNGGTDYNPQFQGRVTITADKSTSTAYMELSSLRSEDTAVYYCARDGYDDGPYTLETWGQGTLVTVSS VL: DIQMTQSPSSLSASVGDRVTITCQASEDIYSFVAWYQQKPGKAPKLLIYNAQTEAQGVPSRFSGSGSGTDFTLTISSLQPEDFATYYCQHHYDSPLTFGGGTKVEIKR | binds
H97L50 (H chain, H97-M58; L chain, L50) (antibody, V domains shown) VH: QVQLVQSGAEVKKPGASVKVSCKASGYTFTGYIMNWVRQAPGQGLEWMGLINPYNGGTSYNQQFQDRVTITADESTSTAYMELSSLRSEDTAVYYCARDGYDDGPYTLETWGQGTLVTVSS VL: DIQMTQSPSSLSASVGDRVTITCQASEDIYSFLAWYQQKPGKAPKLLIYNAQTEAQGVPSRFSGSGSGTDFTLTISSLQPEDFATYYCQHHYDSPLTFGGGTKVEIKR | binds
H98L50 (H chain, H98-M58; L chain, L50) (antibody, V domains shown) VH: QVQLVQSGAEVKKPGASVKVSCKASGYTFTGYIMNWVRQAPGQGLEWMGLINPYNGGTSYNQQFQDRVTITADKSTSTAYMELSSLRSEDTAVYYCARDGYDDGPYTLETWGQGTLVTVSS VL: DIQMTQSPSSLSASVGDRVTITCQASEDIYSFLAWYQQKPGKAPKLLIYNAQTEAQGVPSRFSGSGSGTDFTLTISSLQPEDFATYYCQHHYDSPLTFGGGTKVEIKR | binds
Hp3Lp15 (H chain, Hp3-SKSC; L chain, Lp15) (antibody, V domains shown) VH: QVQLVQSGAEVKKPGASVKVSCKASGYTFTGYIMNWVRQAPGQGLEWMGLINPYNGGTSYNQQFQDRVTITADESTSTAYMELSSLRSEDTAVYYCARDGYDDGPYTMDYWGQGTLVTVSS VL: DIQMTQSPSSLSASVGDRVTITCQTSEDIYSFLAWYQQKPGKAPKLLIYNAQTEAQGVPSRFSGSGSGTDFTLTISSLQPEDFATYYCQHHYESPLTFGGGTKVEIKR | binds
Ha101L0 (H chain, Ha101-SKSC; L chain, L0) (antibody, V domains shown) VH: QVQLVQSGAEVKKPGASVKVSCKASGYTFTGYVMNWVRQAPGQGLEWMGLINPYNGGTSYNQKFKGRVTITADESTSTAYMELSSLRSEDTAVYYCARDGYDDGPYTMDYWGQGTLVTVSS VL: DIQMTQSPSSLSASVGDRVTITCRTSENIYSFLAWYQQKPGKAPKLLIYNAKTLAKGVPSRFSGSGSGTDFTLTISSLQPEDFATYYCQHHYESPLTFGGGTKVEIKR | binds
Ha103L0 (H chain, Ha103-SKSC; L chain, L0) (antibody, V domains shown) VH: QVQLVQSGAEVKKPGASVKVSCKASGYTFTGYIINWVRQAPGQGLEWMGLINPYNGGTSYNQKFKGRVTITADESTSTAYMELSSLRSEDTAVYYCARDGYDDGPYTMDYWGQGTLVTVSS VL: DIQMTQSPSSLSASVGDRVTITCRTSENIYSFLAWYQQKPGKAPKLLIYNAKTLAKGVPSRFSGSGSGTDFTLTISSLQPEDFATYYCQHHYESPLTFGGGTKVEIKR | binds
Ha111L0 (H chain, Ha111-SKSC; L chain, L0) (antibody, V domains shown) VH: QVQLVQSGAEVKKPGASVKVSCKASGYTFTGYILNWVRQAPGQGLEWMGLINPYNGGTSYNQKFKGRVTITADESTSTAYMELSSLRSEDTAVYYCARDGYDDGPYTMDYWGQGTLVTVSS VL: DIQMTQSPSSLSASVGDRVTITCRTSENIYSFLAWYQQKPGKAPKLLIYNAKTLAKGVPSRFSGSGSGTDFTLTISSLQPEDFATYYCQHHYESPLTFGGGTKVEIKR | binds
Ha204L0 (H chain, Ha204-SKSC; L chain, L0) (antibody, V domains shown) VH: QVQLVQSGAEVKKPGASVKVSCKASGYTFTGYIMNWVRQAPGQGLEWMGLINPYNGGTDYNQKFKGRVTITADESTSTAYMELSSLRSEDTAVYYCARDGYDDGPYTMDYWGQGTLVTVSS VL: DIQMTQSPSSLSASVGDRVTITCRTSENIYSFLAWYQQKPGKAPKLLIYNAKTLAKGVPSRFSGSGSGTDFTLTISSLQPEDFATYYCQHHYESPLTFGGGTKVEIKR | binds
Ha219L0 (H chain, Ha219-SKSC; L chain, L0) (antibody, V domains shown) VH: QVQLVQSGAEVKKPGASVKVSCKASGYTFTGYIMNWVRQAPGQGLEWMGLINPYNGGTSYNPKFKGRVTITADESTSTAYMELSSLRSEDTAVYYCARDGYDDGPYTMDYWGQGTLVTVSS VL: DIQMTQSPSSLSASVGDRVTITCRTSENIYSFLAWYQQKPGKAPKLLIYNAKTLAKGVPSRFSGSGSGTDFTLTISSLQPEDFATYYCQHHYESPLTFGGGTKVEIKR | binds
H0La134 (H chain, H0-SKSC; L chain, La134) (antibody, V domains shown) VH: QVQLVQSGAEVKKPGASVKVSCKASGYTFTGYIMNWVRQAPGQGLEWMGLINPYNGGTSYNQKFKGRVTITADESTSTAYMELSSLRSEDTAVYYCARDGYDDGPYTMDYWGQGTLVTVSS VL: DIQMTQSPSSLSASVGDRVTITCRTSENIYRFLAWYQQKPGKAPKLLIYNAKTLAKGVPSRFSGSGSGTDFTLTISSLQPEDFATYYCQHHYESPLTFGGGTKVEIKR | binds
